Assay [1] addresses mouse monoclonal antibody specific for canine FcεRIα sequence … (SEQ ID NO:2). Put plainly: peptide competition, flow cytometry on HMRC mast cells.
The target is the same in assay [2]. Kind of assay: peptide competition ELISA against plate-bound canine FcεRIα.

These are yes or no findings as the source states them, for the method shown. Some entries that bind do so weakly or less than the wild type.

B1: canine FcεRIα peptide sequence … (SEQ ID NO:2) (peptide)
peptide: CTGNNSLEVDSAVWLHNNT
For B1, the binding result in assay [1] and in assay [2] was “binds” in each case.

These data come from patent US20230192894A1.
